Data set [1] can be described thus: Clinical pharmacokinetic data and calculated Fa × Fg in human. As to conditions: calculated from clinical pharmacokinetic data (Section 2.8, Table 2). The class given is in vivo. From the text:
A set of 12 marketed drugs are selected for the evaluation of EpiIntestinal microtissues.

Data set [2] can be described thus: Intestinal first-pass availability in EpiIntestinal microtissues. It counts as in vitro ADME. As to conditions: human, 10 µM apical, GI firstpass availability, read-out: Recovery in Basal Comp. @ 24h (%). The procedure:
Compounds were diluted in culture media to a final concentration of 10 µM and added to the apical (donor) compartment (total volume: 100 µL for EpiIntestinal and 200 µL for Caco-2). After the incubation at 37 °C for 2, 4, 6, and 24 h, samples (50 µL) were taken from the basal (receiver) compartment (total volume: 5000 µL for EpiIntestinal and 800 µL for Caco-2). After the last timepoint, samples from the donor compartments and the cell lysates were also collected. Compound concentrations in the samples were determined by HPLC-MS/MS (Section 2.3).
GI first-pass availability of the tested compounds was expressed as fraction (%) of the total amount of a compound added to the donor compartment recovered in the receiver compartment.

The conditions of data set [3]: human, clinical; cited from earlier work.

On to `COC(=O)C1=C(C)NC(C)=C(C(=O)OC)C1c1ccccc1[N+](=O)[O-]` [Nifedipine], for which the “Fa × Fg in Human (%)” value in data set [1] is recorded as 100%. Moreover, the recovery at 24 h, 10 µM in data set [2] came to 110%. Moreover, in data set [3], the “F (total oral availability)” value was 0.9 [8].
